PubChem BioAssay AID1159578 | Peter MacCallum Cancer Centre, 2015

Screen: 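Knock-downs that alter how fast lymphatic endothelial cells migrate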 (primary screen)
System: human lymphatic endothelial cells
Reagents: siRNA pool against human genes, 40 nM
Timing: 48 h after transfection
Read-out: 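Cells stained with dye and imaged after a scratch; covered wound area and nuclei counted, duplicates averaged, migration set against mock wells and turned into a robust z-score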
Direction: migration robust z-score: higher = faster migration into the scratch; migration relative to mock: higher = more scratch area covered than mock; nuclei per well: higher = more cells in the well
Call rule: 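Migration changed when robust z exceeds 2 or falls below -2 and mean nuclei number is at least 3300; otherwise not called changed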
Calls: active = migration changed; inactive = no migration change, or too few cells
Shown is an unselected part of about 18,000 reagents. About 1,030 of them (5.7%) count as active. 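Inactive calls also include pools with fewer than 3300 nuclei, whose migration was not assessed.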 The raw values are shown without normalisation.

gene knocked down | PubChem SID | migration robust z-score | migration class with cell-count check | migration relative to mock | nuclei per well, duplicate mean | Call
NPIPA1 (nuclear pore complex interacting protein family member A1) | SID255354168 | 0.98 | migration z between -2 and 2; enough cells | 1.14 | 6216 | inactive
PMS1 (PMS1 homolog 1, mismatch repair system component) | SID255351657 | -1.68 | migration z between -2 and 2; enough cells | 0.48 | 4198 | inactive
ZNF507 (zinc finger protein 507) | SID255355813 | -0.34 | migration z between -2 and 2; enough cells | 0.8 | 6437 | inactive
PIWIL4 (piwi like RNA-mediated gene silencing 4) | SID255363197 | 1.03 | migration z between -2 and 2; enough cells | 1.15 | 5722 | inactive
NUP160 (nucleoporin 160) | SID255356129 | -0.31 | migration z between -2 and 2; enough cells | 0.8 | 6003 | inactive
PPP2R3B (protein phosphatase 2 regulatory subunit B''beta) | SID255357061 | 0.7 | migration z between -2 and 2; enough cells | 0.94 | 3766 | inactive
RNF166 (ring finger protein 166) | SID255362339 | -0.75 | migration z between -2 and 2; enough cells | 0.66 | 3365 | inactive
SAAL1 (serum amyloid A like 1) | SID255362176 | 2.47 | migration z above 2; enough cells | 1.52 | 7434 | active
NCLN (nicalin) | SID255359172 | -0.28 | migration z between -2 and 2; enough cells | 0.82 | 5652 | inactive
WLS (Wnt ligand secretion mediator) | SID255360602 | -0.09 | migration z between -2 and 2; enough cells | 0.86 | 5800 | inactive
SYNRG (synergin gamma) | SID255355729 | -0.26 | migration z between -2 and 2; enough cells | 0.82 | 5991 | inactive
CD151 (CD151 molecule (Raph blood group)) | SID255348806 | 3.25 | migration z above 2; enough cells | 1.73 | 7572 | active
GHRL (ghrelin and obestatin prepropeptide) | SID255357879 | -0.82 | migration z between -2 and 2; enough cells | 0.68 | 4504 | inactive
F5 (coagulation factor V) | SID255349598 | 1.01 | migration z between -2 and 2; enough cells | 1 | 7144 | inactive
PYGO1 (pygopus family PHD finger 1) | SID255356671 | 0.47 | migration z between -2 and 2; enough cells | 1 | 5446 | inactive
TEAD4 (TEA domain transcription factor 4) | SID255352807 | -0.72 | migration z between -2 and 2; enough cells | 0.66 | 5517 | inactive
IL9R (interleukin 9 receptor) | SID255350467 | -2.08 | migration z below -2; enough cells | 0.4 | 5770 | active
TNPO3 (transportin 3) | SID255356310 | -2.07 | migration z below -2; enough cells | 0.35 | 3934 | active
OTC (ornithine transcarbamylase) | SID255351373 | 1.45 | migration z between -2 and 2; enough cells | 1.08 | 6130 | inactive
TEX30 (testis expressed 30) | SID255362054 | -0.56 | migration z between -2 and 2; enough cells | 0.74 | 5724 | inactive
HMOX1 (heme oxygenase 1) | SID255350230 | 0.18 | migration z between -2 and 2; enough cells | 0.84 | 6366 | inactive
UBE2S (ubiquitin conjugating enzyme E2 S) | SID255357039 | 1.3 | migration z between -2 and 2; enough cells | 1.05 | 5496 | inactive
IL37 (interleukin 37) | SID255356963 | -0.44 | migration z between -2 and 2; enough cells | 0.78 | 5634 | inactive
SLC9A1 | SID255352477 | -0.57 | migration z between -2 and 2; enough cells | 0.7 | 4218 | inactive
FBXO4 (F-box protein 4) | SID255356751 | -3.27 | migration z below -2; enough cells | 0.18 | 4852 | active
POU2F2 (POU class 2 homeobox 2) | SID255351702 | 0.49 | migration z between -2 and 2; enough cells | 0.9 | 5510 | inactive
FAM193B (family with sequence similarity 193 member B) | SID255358073 | 0.6 | migration z between -2 and 2; enough cells | 1.04 | 4352 | inactive
NGEF (neuronal guanine nucleotide exchange factor) | SID255356461 | -0.16 | migration z between -2 and 2; enough cells | 0.84 | 5678 | inactive
MCCD1 (mitochondrial coiled-coil domain 1) | SID255365779 | -1 | migration z between -2 and 2; enough cells | 0.62 | 5685 | inactive
FAM111A (FAM111 trypsin like peptidase A) | SID255359763 | -1.4 | migration z between -2 and 2; enough cells | 0.52 | 4849 | inactive
PLIN3 (perilipin 3) | SID255354913 | 0.06 | migration z between -2 and 2; enough cells | 0.9 | 4127 | inactive
GJD3 (gap junction protein delta 3) | SID255362653 | 0.56 | migration z between -2 and 2; enough cells | 1.03 | 6088 | inactive
LTK (leukocyte receptor tyrosine kinase) | SID255350813 | 0.78 | migration z between -2 and 2; enough cells | 0.96 | 5563 | inactive
ZNF687 (zinc finger protein 687) | SID255359494 | -0.71 | migration z between -2 and 2; enough cells | 0.7 | 5092 | inactive
TCF4 (transcription factor 4) | SID255352774 | -0.08 | migration z between -2 and 2; enough cells | 0.79 | 3841 | inactive
SNRPD2 (small nuclear ribonucleoprotein D2 polypeptide) | SID255352552 | -1.27 | migration z between -2 and 2; enough cells | 0.55 | 5816 | inactive
HSPA12B (heat shock protein family A (Hsp70) member 12B) | SID255362390 | 0.48 | migration z between -2 and 2; enough cells | 1.01 | 6262 | inactive
TMEM198 (transmembrane protein 198) | SID255362872 | -0.92 | migration z between -2 and 2; enough cells | 0.64 | 5957 | inactive
CYP11B1 (cytochrome P450 family 11 subfamily B member 1) | SID255349216 | -0.24 | migration z between -2 and 2; enough cells | 0.76 | 5244 | inactive
GLB1L2 (galactosidase beta 1 like 2) | SID255361770 | 0.32 | migration z between -2 and 2; enough cells | 0.97 | 4630 | inactive
MAP3K21 (mitogen-activated protein kinase kinase kinase 21) | SID255361372 | 1.4 | migration z between -2 and 2; enough cells | 1.07 | 5757 | inactive
ARPP21 (cAMP regulated phosphoprotein 21) | SID255355345 | 0.38 | migration z between -2 and 2; enough cells | 0.99 | 5940 | inactive
RNF175 (ring finger protein 175) | SID255364861 | 1.33 | migration z between -2 and 2; enough cells | 1.06 | 6768 | inactive
TAC1 (tachykinin precursor 1) | SID255352721 | 1.19 | migration z between -2 and 2; enough cells | 1.19 | 6458 | inactive
PLAC9 (placenta associated 9) | SID255364157 | -0.04 | migration z between -2 and 2; enough cells | 0.88 | 4748 | inactive
PUF60 (poly(U) binding splicing factor 60) | SID255355798 | 1.89 | migration z between -2 and 2; enough cells | 1.38 | 5166 | inactive
USP32 (ubiquitin specific peptidase 32) | SID255361456 | 0 | migration z between -2 and 2; enough cells | 0.8 | 5605 | inactive
RBFOX3 (RNA binding fox-1 homolog 3) | SID255363292 | 0.4 | migration z between -2 and 2; enough cells | 0.99 | 5914 | inactive
RBFOX3 (RNA binding fox-1 homolog 3) | SID255366097 | -1.51 | migration z between -2 and 2; enough cells | 0.5 | 5242 | inactive
POU4F3 (POU class 4 homeobox 3) | SID255351709 | -0.06 | migration z between -2 and 2; enough cells | 0.87 | 7891 | inactive
IPO5 (importin 5) | SID255350674 | 0.8 | migration z between -2 and 2; enough cells | 0.96 | 5352 | inactive
KRTAP10-12 (keratin associated protein 10-12) | SID255365421 | -0.06 | migration z between -2 and 2; enough cells | 0.87 | 5638 | inactive
RHBDD2 (rhomboid domain containing 2) | SID255359381 | -0.56 | migration z between -2 and 2; enough cells | 0.74 | 5995 | inactive
TMEM143 (transmembrane protein 143) | SID255358548 | 0 | migration z between -2 and 2; enough cells | 0.88 | 5940 | inactive
STK38L (serine/threonine kinase 38 like) | SID255355924 | -0.46 | migration z between -2 and 2; enough cells | 0.72 | 3964 | inactive
TMEM178A (transmembrane protein 178A) | SID255362874 | -0.6 | migration z between -2 and 2; enough cells | 0.73 | 5652 | inactive
GLRA2 (glycine receptor alpha 2) | SID255349918 | 0.18 | migration z between -2 and 2; enough cells | 0.84 | 4968 | inactive
